Results: paper PMC12903969, “Discovery of a Novel and Potent Kir4.1 Inhibitor as a Safe and Rapid‐Onset Antidepressant Agent in Mice” (Advanced Science, 2025)

Tested on: MDA-MB-468 breast cancer cells
Experiment: Cytotoxicity test (CCK-8)
Type: cell-based
Conditions: anti-proliferation IC50 in MDA-MB-468 / inhibition IC50 against Kir4.1
Procedure: Cytotoxicity of all the tested compounds was determined using the cell counting kit‐8 (CCK‐8) assay kit (Beyotime, Shanghai, China). Briefly, MDA‐MB‐468 was cultured in L15 medium and plated in 96‐well plates at a density of 12,000 cells per well for 24 h at 37 °C in a 5% CO2 incubator. The tested compounds were dissolved in DMSO and diluted with culture medium (DMSO final concentration < 0.4%). Then the cells were treated with compounds (0.41, 1.23, 3.70, 11.11, 33.33, 100.00 µM) for 48 h. After treatments, removal of the supernatant liquor, 100 µL of new media diluted CCK‐8 solution (10% CCK‐8) was added into each well and incubated at 37 °C for 2 h. The absorbance of the mixture was directly measured at 450 nm. The results are presented as a percentage of the control.

c1ccc2c(c1)oc1ccc(Nc3ccnc(NCCCN4CCOCC4)n3)cc12 [JX3212, N^4-(dibenzo[b,d]furan-2-yl)-N^2-(3-morpholinopropyl)pyrimidine-2,4-diamine]
preliminary therapeutic index (TI): ≈ 49
